Results taken from patent publication US8076488B2, “Bicyclic urea derivatives useful in the treatment of cancer and other disorders” (Bayer Healthcare LLC, priority 2003, dated 2011).
“And” between values parts separate entries of the source, which are not always exact repeats. Identical values can stand only once. Some entries share one result that the patent states for a list of compounds.

Molecular target: T1, c-Raf kinase (Lck-activated c-Raf, Raf-1) (Homo sapiens, UniProt P04049)
T1 construct: GST-c-Raf (from amino acid 302 to amino acid 648); made in house; host or cells: Sf9 insect cells (baculovirus; co-infection with full-length Lck)
Assay: c-Raf (Raf-1) biochemical assay (radioactive filtermat assay, MEK-1 substrate)
Conditions: at 1 micromolar compound, 5 μM ATP, 32° C., 1 hour
Protocol: Biological Tests c-Raf (Raf-1) Biochemical Assay Purification of Proteins Used in the Assay
The c-Raf biochemical assay was performed with a c-Raf enzyme that was activated (phosphorylated) by Lck kinase. Lck-activated c-Raf (Lck/c-Raf) was produced in Sf9 insect cells by co-infecting cells with baculoviruses expressing, under the control of the polyhedrin promoter, GST-c-Raf (from amino acid 302 to amino acid 648) and Lck (full-length). Both baculoviruses were used at the multiplicity of infection of 2.5 and the cells were harvested 48 hours post infection.
MEK-1 protein was produced in Sf9 insect cells by infecting cells with the baculovirus expressing GST-MEK-1 (full-length) fusion protein at the multiplicity of infection of 5 and harvesting the cells 48 hours post infection. Similar purification procedure was used for GST-c-Raf 302-648 and GST-MEK-1.
Transfected cells were suspended at 100 mg of wet cell biomass per mL in a buffer containing 10 mM sodium phosphate, 140 mM sodium chloride pH 7.3, 0.5% Triton X-100 and the protease inhibitor cocktail. The cells were disrupted with Polytron homogenizer and centrifuged 30,000 g for 30 minutes. The 30,000 g supernatant was applied onto GSH-Sepharose. The resin was washed with a buffer containing 50 mM Tris, pH 8.0, 150 mM NaCl and 0.01% Triton X-100. The GST-tagged proteins were eluted with a solution containing 100 mM Glutathione, 50 mM Tris, pH 8.0, 150 mM NaCl and 0.01% Triton X-100. The purified proteins were dialyzed into a buffer containing 20 mM Tris, pH 7.5, 150 mM NaCl and 20% Glycerol.
Biochemical Assay Protocol and Results
The compounds were serially diluted in DMSO using three-fold dilutions to stock concentrations ranging typically from 50 μM to 20 nM (final concentrations in the assay range from 1 μM to 0.4 nM). The c-Raf biochemical assay was performed as a radioactive filtermat assay in 96-well Costar polypropylene plates (Costar 3365). The plates were loaded with 75 μL solution containing 50 mM HEPES pH 7.5, 70 mM NaCl, 80 ng of Lck/c-Raf and 1 μg MEK-1. Subsequently, 2 μL of the serially diluted individual compounds were added to the reaction, prior to the addition of ATP. The reaction was initiated with 25 μL ATP solution containing 5 μM ATP and 0.3 μCi [33P]-ATP. The plates were sealed and incubated at 32° C. for 1 hour. The reaction was quenched with the addition of 50 μl of 4% Phosphoric Acid and harvested onto P30 filtermats (PerkinElmer) using a Wallac Tomtec Harvester. Filtermats were washed with 1% Phosphoric Acid first and deinonized H2O second. The filters were dried in a microwave, soaked in scintillation fluid and read in a Wallac 1205 Betaplate Counter (Wallac Inc., Atlanta, Ga., U.S.A.). The results were expressed as percent inhibition. % Inhibition=[[…]]×100 where • Tib=(counts per minute with inhibitor)−(background) • Ti=(counts per minute without inhibitor)−(background)

SMILES	inhibition of c-Raf kinase	further results
CNC(=O)c1cc(Oc2ccc(NC(=O)Nc3ccc4c(cnn4C)c3)c(F)c2)ccn1 [Example 1, 4-[3-fluoro-4-({[(1-methyl-1H-indazol-5-yl)amino]carbonyl}amino)phenoxy]-N-methylpyridine-2-carboxamide]	> 80%	inhibition of c-Raf kinase (listed as example 1): > 40%
CNC(=O)c1cc(Oc2ccc(NC(=O)Nc3ccc4ncsc4c3)cc2)ccn1 [Example 4, 4-(4-{[(1,3-benzothiazol-6-ylamino)carbonyl]amino}phenoxy)-N-methyl-pyridine-2-carboxamide]	> 80%	inhibition of c-Raf kinase (listed as example 4): > 40%
CNC(=O)c1cc(Oc2ccc(NC(=O)Nc3cccc4c3OC(F)(F)O4)cc2)ccn1 [Example 8]	> 80%	inhibition of c-Raf kinase (listed as example 8): > 40%
CNC(=O)c1cc(Oc2ccc(NC(=O)Nc3nc4cc(Cl)ccc4o3)cc2)ccn1 [Example 15]	> 80%	inhibition of c-Raf kinase (listed as example 15): > 40%
CNC(=O)c1cc(Oc2ccc(NC(=O)Nc3ccc4c(c3)OC(F)(F)C(F)(F)O4)cc2)ccn1 [Example 19]	> 80%	inhibition of c-Raf kinase (listed as example 19): > 40%
CNC(=O)c1cc(Oc2ccc(NC(=O)Nc3ccc4c(c3)CCC4)cc2)ccn1 [Example 21]	> 80%	inhibition of c-Raf kinase (listed as example 21): > 40%
CNC(=O)c1cc(Oc2ccc(NC(=O)Nc3ccc4c(cnn4C)c3)cc2)ccn1 [Example 23]	> 80%	inhibition of c-Raf kinase (listed as example 23): > 40%
CNC(=O)c1cc(Oc2ccc(NC(=O)Nc3ccc4c(c3)CCO4)cc2)ccn1 [Example 25]	> 80%	inhibition of c-Raf kinase (listed as example 25): > 40%
CNC(=O)c1cc(Oc2cccc(NC(=O)Nc3ccc4c(c3)OC(F)(F)C(F)(F)O4)c2)ccn1 [Example 32]	> 80%	inhibition of c-Raf kinase (listed as example 32): > 40%
CNC(=O)c1cc(Oc2cccc(NC(=O)Nc3ccc4c(c3)OC(F)(F)O4)c2)ccn1 [Example 33]	> 40% and > 80%	
CNC(=O)c1cc(Oc2cccc(NC(=O)Nc3ccc4c(cnn4C)c3)c2)ccn1 [Example 34]	> 40% and > 80%	
CNC(=O)c1cc(Oc2cccc(NC(=O)Nc3ccc4c(c3)CCO4)c2)ccn1 [Example 35]	> 40% and > 80%	
CNC(=O)c1cc(Oc2cccc(NC(=O)Nc3ccc4[nH]c(C(F)(F)F)nc4c3)c2)ccn1 [Example 36]	> 40% and > 80%	
CNC(=O)c1cc(Oc2ccc(NC(=O)Nc3nc4ccc(F)cc4s3)c(F)c2)ccn1 [Example 39]	> 40% and > 80%	
CNC(=O)c1cc(Oc2ccc(NC(=O)Nc3nc4ccc(OC(F)(F)F)cc4s3)c(F)c2)ccn1 [Example 40]	> 40% and > 80%	
CNC(=O)c1cc(Oc2ccc(NC(=O)Nc3nc4ccc(Cl)cc4s3)c(F)c2)ccn1 [Example 41]	> 40% and > 80%	
CNC(=O)c1cc(Oc2ccc(NC(=O)Nc3nc4c(F)cc(F)cc4s3)c(F)c2)ccn1 [Example 42]	> 40% and > 80%	
CNC(=O)c1cc(Oc2ccc(NC(=O)Nc3nc4ccc(OC)cc4s3)c(F)c2)ccn1 [Example 43]	> 40% and > 80%	
CNC(=O)c1cc(Oc2ccc(NC(=O)Nc3ccc4c(c3)CCC4)c(F)c2)ccn1 [Example 46]	> 40% and > 80%	
CNC(=O)c1cc(Oc2ccc(NC(=O)Nc3ccc4c(c3)CCC4=O)c(F)c2)ccn1 [Example 47]	> 40% and > 80%	
CNC(=O)c1cc(Oc2ccc(NC(=O)Nc3ccc4nccnc4c3)c(F)c2)ccn1 [Example 48]	> 40% and > 80%	
CNC(=O)c1cc(Oc2ccc(NC(=O)Nc3ccc4sc(C)nc4c3)c(F)c2)ccn1 [Example 49]	> 40% and > 80%	
CNC(=O)c1cc(Oc2ccc(NC(=O)Nc3ccc4c(c3)S(=O)(=O)CC4)c(F)c2)ccn1 [Example 50]	> 40% and > 80%	

SMILES	inhibition of c-Raf kinase	further results
CNC(=O)c1cc(Oc2ccc(NC(=O)Nc3ccc4c(c3)OC(F)(F)C(F)(F)O4)c(F)c2)ccn1 [Example 52]	> 40% and > 80%	
CNC(=O)c1cc(Oc2ccc(NC(=O)Nc3ccc4c(c3)OC(F)(F)O4)c(F)c2)ccn1 [Example 53]	> 40% and > 80%	
CNC(=O)c1cncc(Oc2ccc(NC(=O)Nc3ccc4c(c3)OC(F)(F)C(F)(F)O4)c(F)c2)c1 [Example 54]	> 40% and > 80%	
CNC(=O)c1cc(Oc2ccc(NC(=O)Nc3ccc4c(cnn4C)c3)cc2F)ccn1 [Example 55]	> 40% and > 80%	
CNC(=O)c1cc(Oc2cc(NC(=O)Nc3ccc4c(cnn4C)c3)c(F)cc2F)ccn1 [Example 56]	> 40% and > 80%	
CNC(=O)c1cc(Oc2ccc(F)c(NC(=O)Nc3ccc4c(cnn4C)c3)c2)ccn1 [Example 57]	> 40% and > 80%	
CNC(=O)c1cc(Oc2cc(NC(=O)Nc3ccc4c(cnn4C)c3)ccc2F)ccn1 [Example 58]	> 40% and > 80%	
CNC(=O)c1cc(Oc2c(F)cc(NC(=O)Nc3ccc4c(cnn4C)c3)cc2Cl)ccn1 [Example 59]	> 40% and > 80%	
CNC(=O)c1cc(Oc2ccc(NC(=O)Nc3ccc4c(c3)CCC4)c(C(F)(F)F)c2)ccn1 [Example 60]	> 40% and > 80%	
CNC(=O)c1cc(Oc2ccc(NC(=O)Nc3ccc4c(c3)CCC4=O)c(C(F)(F)F)c2)ccn1 [Example 61]	> 40% and > 80%	
CNC(=O)c1cc(Oc2ccc(NC(=O)Nc3ccc4c(cnn4C)c3)c(C(F)(F)F)c2)ccn1 [Example 62]	> 40% and > 80%	
CNC(=O)c1cc(Oc2ccc(NC(=O)Nc3ccc4nccnc4c3)c(C(F)(F)F)c2)ccn1 [Example 63]	> 40% and > 80%	
CNC(=O)c1cc(Oc2ccc(NC(=O)Nc3ccc4nccnc4c3)c(Cl)c2)ccn1 [Example 68]	> 40% and > 80%	
CNC(=O)c1cc(Oc2ccc(NC(=O)Nc3ccc4c(cnn4C)c3)c(Cl)c2)ccn1 [Example 69]	> 40% and > 80%	
CNC(=O)c1cc(Oc2ccc(NC(=O)Nc3ccc4c(c3)OC(F)(F)O4)c(Cl)c2)ccn1 [Example 70]	> 40% and > 80%	
CNC(=O)c1cc(Oc2ccc(NC(=O)Nc3ccc4c(c3)OC(F)(F)C(F)(F)O4)c(Cl)c2)ccn1 [Example 71]	> 40% and > 80%	
CNC(=O)c1cc(Oc2ccc(NC(=O)Nc3ccc4c(c3)CCC4=O)cc2Cl)ccn1 [Example 72]	> 40% and > 80%	
CNC(=O)c1cc(Oc2ccc(NC(=O)Nc3ccc4c(c3)CCC4)cc2Cl)ccn1 [Example 73]	> 40% and > 80%	
CNC(=O)c1cc(Oc2ccc(NC(=O)Nc3ccc4c(c3)OC(F)(F)C(F)(F)O4)cc2Cl)ccn1 [Example 74]	> 40% and > 80%	
CNC(=O)c1cc(Oc2ccc(NC(=O)Nc3ccc4c(c3)OC(F)(F)O4)cc2Cl)ccn1 [Example 75]	> 40% and > 80%	
CNC(=O)c1cc(Oc2ccc(NC(=O)Nc3ccc4c(cnn4C)c3)cc2Cl)ccn1 [Example 76]	> 40% and > 80%	
CNC(=O)c1cc(Oc2cc(NC(=O)Nc3ccc4c(c3)OC(F)(F)C(F)(F)O4)c(Cl)cc2Cl)ccn1 [Example 77]	> 40% and > 80%	
CNC(=O)c1cc(Oc2cc(NC(=O)Nc3ccc4c(cnn4C)c3)c(Cl)cc2Cl)ccn1 [Example 78]	> 40% and > 80%	
